Source: publication PMC7086360
These are yes or no findings as the source states them, for the method shown. Binding seen in cells or lysates may run through a third protein. Here binding means that the protein was enriched with, or labelled near, the bait; the list need not be complete.

By UniProt entry, the sequences of proteins in these tests, tags left out. Residues count along the entry.
UniProt Q08722, residues 19-323: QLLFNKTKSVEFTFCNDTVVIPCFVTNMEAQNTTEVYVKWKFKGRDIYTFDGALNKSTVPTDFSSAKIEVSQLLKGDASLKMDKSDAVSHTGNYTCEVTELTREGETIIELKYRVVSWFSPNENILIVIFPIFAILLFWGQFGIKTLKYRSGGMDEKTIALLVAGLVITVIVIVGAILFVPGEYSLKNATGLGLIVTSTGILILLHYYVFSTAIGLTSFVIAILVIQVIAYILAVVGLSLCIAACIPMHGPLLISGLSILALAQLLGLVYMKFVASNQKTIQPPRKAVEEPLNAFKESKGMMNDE
UniProt P06733: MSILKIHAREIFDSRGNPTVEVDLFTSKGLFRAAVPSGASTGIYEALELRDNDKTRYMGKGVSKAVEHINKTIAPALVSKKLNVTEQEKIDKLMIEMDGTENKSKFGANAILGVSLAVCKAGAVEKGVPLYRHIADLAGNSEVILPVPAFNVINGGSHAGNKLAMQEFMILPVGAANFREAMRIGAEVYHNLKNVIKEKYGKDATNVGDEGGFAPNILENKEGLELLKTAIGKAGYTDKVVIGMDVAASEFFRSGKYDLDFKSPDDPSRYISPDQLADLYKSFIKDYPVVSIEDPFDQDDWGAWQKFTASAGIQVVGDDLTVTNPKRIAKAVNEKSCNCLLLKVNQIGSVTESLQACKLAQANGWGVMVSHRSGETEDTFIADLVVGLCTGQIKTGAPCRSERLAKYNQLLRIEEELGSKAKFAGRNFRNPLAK

Target: Flag-CD47 (human) (UniProt Q08722)
Test: affinity purification with mass spectrometry; HEK293T cells transfected with Flag-CD47, immunoprecipitated with anti-Flag magnetic beads, LC-MS/MS; three independent experiments

ENO1 (endogenous, HEK293T) (from UniProt P06733 1-434) (enzyme)
binding: binds
